# Test results published in the supplement of paper PMC10849652.
# Protein sequences, listed by entry. Tags and fused reporters are not part of them. Lines headed by an entry give the natural chain unless they say otherwise; changes in a name come on top.
# UniProt Q5VIR6: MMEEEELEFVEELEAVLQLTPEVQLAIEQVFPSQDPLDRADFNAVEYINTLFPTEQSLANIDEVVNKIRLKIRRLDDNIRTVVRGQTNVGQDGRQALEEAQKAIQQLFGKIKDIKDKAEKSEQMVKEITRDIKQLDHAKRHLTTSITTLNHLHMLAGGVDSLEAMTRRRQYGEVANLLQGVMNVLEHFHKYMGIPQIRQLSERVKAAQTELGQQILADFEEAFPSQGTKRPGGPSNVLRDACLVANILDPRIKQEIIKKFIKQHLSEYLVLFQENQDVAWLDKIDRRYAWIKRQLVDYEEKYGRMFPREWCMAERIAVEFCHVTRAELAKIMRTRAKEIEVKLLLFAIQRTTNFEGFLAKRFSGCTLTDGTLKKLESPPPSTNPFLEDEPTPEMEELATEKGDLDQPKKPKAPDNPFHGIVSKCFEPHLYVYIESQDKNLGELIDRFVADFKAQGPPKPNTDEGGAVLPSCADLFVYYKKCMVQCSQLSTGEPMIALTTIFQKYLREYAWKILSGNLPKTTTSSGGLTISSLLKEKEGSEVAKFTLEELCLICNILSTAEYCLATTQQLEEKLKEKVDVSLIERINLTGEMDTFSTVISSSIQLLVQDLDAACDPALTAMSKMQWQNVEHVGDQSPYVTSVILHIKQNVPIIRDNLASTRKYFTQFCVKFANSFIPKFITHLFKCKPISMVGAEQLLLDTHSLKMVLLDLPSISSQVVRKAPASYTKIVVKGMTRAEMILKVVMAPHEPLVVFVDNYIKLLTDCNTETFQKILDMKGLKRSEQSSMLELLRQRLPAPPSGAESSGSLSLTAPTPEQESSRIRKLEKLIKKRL
# UniProt Q9H4A3: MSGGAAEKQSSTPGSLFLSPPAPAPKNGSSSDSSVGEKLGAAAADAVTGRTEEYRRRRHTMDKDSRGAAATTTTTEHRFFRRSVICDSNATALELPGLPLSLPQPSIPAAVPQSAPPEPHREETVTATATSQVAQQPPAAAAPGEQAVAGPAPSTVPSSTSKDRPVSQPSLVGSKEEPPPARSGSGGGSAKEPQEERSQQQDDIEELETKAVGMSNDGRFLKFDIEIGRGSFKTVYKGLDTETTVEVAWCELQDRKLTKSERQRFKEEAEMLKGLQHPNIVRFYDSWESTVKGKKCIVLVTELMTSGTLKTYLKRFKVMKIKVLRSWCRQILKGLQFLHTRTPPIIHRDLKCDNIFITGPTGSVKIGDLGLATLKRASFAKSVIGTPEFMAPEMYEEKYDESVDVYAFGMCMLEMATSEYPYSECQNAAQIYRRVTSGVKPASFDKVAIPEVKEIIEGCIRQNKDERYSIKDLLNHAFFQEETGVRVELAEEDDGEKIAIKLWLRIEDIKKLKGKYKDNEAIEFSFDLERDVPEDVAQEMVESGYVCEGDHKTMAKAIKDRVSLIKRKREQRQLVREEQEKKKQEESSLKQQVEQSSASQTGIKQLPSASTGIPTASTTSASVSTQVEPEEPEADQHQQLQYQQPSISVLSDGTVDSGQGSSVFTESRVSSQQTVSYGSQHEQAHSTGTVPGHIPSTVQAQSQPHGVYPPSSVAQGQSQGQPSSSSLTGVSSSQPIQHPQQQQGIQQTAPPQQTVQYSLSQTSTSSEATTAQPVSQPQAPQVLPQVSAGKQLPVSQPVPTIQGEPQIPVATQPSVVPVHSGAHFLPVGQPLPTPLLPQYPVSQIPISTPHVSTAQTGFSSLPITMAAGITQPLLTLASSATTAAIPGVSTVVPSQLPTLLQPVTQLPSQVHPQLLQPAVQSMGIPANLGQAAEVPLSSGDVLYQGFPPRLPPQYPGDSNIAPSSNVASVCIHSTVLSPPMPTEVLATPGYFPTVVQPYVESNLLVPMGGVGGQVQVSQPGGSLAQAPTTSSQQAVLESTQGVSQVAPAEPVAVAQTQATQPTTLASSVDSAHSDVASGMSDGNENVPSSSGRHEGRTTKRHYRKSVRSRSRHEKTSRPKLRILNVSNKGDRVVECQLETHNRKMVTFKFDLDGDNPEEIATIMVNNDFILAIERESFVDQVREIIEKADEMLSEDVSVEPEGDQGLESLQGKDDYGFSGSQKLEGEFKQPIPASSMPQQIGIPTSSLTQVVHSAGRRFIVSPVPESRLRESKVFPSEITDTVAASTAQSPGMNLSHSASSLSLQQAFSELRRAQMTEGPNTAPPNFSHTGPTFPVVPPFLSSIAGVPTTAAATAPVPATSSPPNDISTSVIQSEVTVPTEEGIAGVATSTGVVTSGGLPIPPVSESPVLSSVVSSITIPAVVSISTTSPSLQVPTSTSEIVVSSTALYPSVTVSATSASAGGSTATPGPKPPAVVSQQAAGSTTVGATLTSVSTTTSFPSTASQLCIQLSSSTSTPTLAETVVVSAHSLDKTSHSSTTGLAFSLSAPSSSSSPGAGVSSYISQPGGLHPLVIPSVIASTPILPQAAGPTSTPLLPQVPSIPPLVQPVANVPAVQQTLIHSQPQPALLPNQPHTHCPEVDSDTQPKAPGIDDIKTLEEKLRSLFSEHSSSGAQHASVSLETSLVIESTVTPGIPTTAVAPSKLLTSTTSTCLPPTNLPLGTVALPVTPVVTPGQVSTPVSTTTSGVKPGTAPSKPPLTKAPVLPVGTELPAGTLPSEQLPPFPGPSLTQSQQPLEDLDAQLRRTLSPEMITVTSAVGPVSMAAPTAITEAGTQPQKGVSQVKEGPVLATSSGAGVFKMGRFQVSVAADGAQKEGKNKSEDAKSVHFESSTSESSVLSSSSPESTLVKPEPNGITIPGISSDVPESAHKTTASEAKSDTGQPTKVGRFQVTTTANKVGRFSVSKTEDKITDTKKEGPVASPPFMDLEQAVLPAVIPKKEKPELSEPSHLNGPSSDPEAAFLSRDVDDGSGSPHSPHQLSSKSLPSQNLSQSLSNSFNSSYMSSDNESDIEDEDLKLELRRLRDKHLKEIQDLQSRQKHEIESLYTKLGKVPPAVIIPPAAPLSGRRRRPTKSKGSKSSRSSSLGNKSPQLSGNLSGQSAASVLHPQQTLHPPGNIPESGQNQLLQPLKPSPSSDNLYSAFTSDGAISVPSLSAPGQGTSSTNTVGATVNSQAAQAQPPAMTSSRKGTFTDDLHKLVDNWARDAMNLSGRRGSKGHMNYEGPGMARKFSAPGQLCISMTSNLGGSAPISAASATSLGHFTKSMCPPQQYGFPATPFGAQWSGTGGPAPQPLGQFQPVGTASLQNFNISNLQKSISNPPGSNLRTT
# UniProt Q9BRG1: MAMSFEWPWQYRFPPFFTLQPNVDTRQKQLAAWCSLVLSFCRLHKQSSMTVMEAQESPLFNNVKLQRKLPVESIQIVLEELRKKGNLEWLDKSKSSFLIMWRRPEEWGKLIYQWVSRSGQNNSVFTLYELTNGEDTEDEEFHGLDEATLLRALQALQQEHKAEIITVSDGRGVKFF
# UniProt Q9H269: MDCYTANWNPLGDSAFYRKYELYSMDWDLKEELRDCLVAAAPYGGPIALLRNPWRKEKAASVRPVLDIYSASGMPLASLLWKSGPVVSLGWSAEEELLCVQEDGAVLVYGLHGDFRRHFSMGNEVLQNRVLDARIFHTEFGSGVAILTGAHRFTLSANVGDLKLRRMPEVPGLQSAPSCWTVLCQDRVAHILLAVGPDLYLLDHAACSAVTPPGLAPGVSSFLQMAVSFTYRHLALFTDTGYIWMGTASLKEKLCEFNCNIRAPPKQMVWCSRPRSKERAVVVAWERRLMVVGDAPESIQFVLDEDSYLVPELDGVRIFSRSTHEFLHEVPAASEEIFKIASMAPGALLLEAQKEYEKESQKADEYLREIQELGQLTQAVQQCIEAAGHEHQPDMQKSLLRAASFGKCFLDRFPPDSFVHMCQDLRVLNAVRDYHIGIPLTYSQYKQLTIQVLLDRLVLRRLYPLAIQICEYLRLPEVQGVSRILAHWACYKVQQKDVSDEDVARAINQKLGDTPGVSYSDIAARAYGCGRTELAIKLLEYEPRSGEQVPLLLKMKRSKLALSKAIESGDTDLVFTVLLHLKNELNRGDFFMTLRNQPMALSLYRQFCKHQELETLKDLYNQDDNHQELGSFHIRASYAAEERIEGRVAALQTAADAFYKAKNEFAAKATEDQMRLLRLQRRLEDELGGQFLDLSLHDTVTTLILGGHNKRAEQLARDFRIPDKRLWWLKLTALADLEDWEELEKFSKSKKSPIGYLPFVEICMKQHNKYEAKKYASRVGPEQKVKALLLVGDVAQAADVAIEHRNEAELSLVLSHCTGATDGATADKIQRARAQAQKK
# UniProt Q9BV38: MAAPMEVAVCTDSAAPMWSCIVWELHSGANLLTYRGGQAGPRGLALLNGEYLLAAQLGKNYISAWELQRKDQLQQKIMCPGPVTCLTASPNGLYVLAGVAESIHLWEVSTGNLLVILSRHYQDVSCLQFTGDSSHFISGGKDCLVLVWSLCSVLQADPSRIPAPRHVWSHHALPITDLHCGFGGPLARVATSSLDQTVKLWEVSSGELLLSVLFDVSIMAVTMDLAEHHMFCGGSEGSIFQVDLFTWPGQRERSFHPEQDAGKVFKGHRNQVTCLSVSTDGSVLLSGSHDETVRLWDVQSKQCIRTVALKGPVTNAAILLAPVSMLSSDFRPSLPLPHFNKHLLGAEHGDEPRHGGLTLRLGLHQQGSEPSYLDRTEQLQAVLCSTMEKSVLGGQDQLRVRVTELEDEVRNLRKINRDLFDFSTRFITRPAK
# UniProt O00258: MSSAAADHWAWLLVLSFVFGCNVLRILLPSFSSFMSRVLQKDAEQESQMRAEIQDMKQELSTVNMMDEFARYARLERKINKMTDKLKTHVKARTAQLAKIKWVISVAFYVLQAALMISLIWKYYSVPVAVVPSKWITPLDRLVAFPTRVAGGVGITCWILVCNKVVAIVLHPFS
# UniProt Q99986: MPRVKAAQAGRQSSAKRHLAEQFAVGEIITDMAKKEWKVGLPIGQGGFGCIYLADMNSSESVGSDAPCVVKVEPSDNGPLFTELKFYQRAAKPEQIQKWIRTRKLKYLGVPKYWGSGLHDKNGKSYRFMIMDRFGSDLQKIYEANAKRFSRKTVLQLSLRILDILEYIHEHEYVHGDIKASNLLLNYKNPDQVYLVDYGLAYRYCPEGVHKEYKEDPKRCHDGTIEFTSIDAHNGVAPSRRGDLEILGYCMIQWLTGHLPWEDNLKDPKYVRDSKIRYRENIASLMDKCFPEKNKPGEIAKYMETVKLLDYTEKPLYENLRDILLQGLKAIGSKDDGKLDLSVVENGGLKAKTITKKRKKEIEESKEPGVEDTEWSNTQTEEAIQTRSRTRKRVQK
# UniProt Q9Y2W2: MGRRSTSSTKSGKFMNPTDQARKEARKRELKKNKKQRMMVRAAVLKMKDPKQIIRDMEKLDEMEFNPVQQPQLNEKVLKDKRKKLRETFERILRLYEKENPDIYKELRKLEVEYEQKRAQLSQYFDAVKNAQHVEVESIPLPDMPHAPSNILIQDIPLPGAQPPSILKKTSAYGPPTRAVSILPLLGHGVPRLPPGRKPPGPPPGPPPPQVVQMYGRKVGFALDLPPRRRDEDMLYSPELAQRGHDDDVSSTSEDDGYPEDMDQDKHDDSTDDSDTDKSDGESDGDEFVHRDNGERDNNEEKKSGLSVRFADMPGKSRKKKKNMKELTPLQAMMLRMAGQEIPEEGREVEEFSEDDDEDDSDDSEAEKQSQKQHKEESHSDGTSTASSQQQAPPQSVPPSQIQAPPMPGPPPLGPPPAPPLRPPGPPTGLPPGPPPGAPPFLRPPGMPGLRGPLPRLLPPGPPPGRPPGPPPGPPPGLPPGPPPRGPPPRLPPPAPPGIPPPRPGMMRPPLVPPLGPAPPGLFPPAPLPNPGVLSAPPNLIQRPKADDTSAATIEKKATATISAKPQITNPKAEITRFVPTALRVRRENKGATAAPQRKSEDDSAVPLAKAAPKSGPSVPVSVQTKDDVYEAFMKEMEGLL
# UniProt O15213: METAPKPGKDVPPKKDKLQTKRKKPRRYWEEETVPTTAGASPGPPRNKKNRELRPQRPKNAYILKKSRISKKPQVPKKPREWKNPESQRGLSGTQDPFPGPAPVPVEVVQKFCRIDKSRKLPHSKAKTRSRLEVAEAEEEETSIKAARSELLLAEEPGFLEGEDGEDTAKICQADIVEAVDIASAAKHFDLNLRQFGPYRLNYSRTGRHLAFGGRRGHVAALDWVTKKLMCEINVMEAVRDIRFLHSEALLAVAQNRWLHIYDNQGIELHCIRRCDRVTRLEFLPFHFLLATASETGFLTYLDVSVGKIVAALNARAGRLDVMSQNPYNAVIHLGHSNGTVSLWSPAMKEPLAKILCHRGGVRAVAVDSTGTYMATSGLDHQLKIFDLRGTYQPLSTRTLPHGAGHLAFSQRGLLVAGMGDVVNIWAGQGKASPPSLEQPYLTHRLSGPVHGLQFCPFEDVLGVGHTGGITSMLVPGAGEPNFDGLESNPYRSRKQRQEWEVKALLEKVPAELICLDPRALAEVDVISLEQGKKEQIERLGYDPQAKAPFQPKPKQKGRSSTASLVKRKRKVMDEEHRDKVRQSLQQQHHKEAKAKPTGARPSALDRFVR
# Some of the results follow.
# Legend:
# Assay in all cases: log2 fold change, soluble protein after heating vs DMSO (PISA); higher = thermal stabilisation; K562 lysate, 10 uM; active = over 0.2 and 3.5 SD of the protein, either way, in both replicates (recomputed)
# vemurafenib = compound: CCCS(=O)(=O)Nc1ccc(F)c(C(=O)c2c[nH]c3ncc(-c4ccc(Cl)cc4)cc23)c1F [vemurafenib]
# Procedure, shortened: (§1)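 The values are log-two fold changes in thermal stability compared with solvent controls and come from duplicates. They were obtained by TMTpro 16plex LC-MS/MS, with channel sums equalised, on the supernatant after 21,000xg for 90 min. That supernatant came from crude K562 extract at 1 mg/mL protein treated with 10 μM compound for 30 min, heated for 3 min across 48°C-58°C, pooled and brought to 0.5% NP-40 at 4°C.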
# [1] = compound: CCCS(=O)(=O)Nc1ccc(F)c(C(=O)c2c[nH]c3ncc(Cl)cc23)c1F
# Procedure, shortened: as §1
# barasertib = compound: CCN(CCCOc1ccc2c(Nc3cc(CC(=O)Nc4cccc(F)c4)[nH]n3)ncnc2c1)CCOP(=O)(O)O [barasertib]
# Procedure, shortened: as §1
# [2] = compound: CC[C@@H]1C(=O)N(C)c2cnc(Nc3ccc(C(=O)NC4CCN(C)CC4)cc3OC)nc2N1C1CCCC1
# Procedure, shortened: as §1
# volasertib = compound: CC[C@@H]1C(=O)N(C)c2cnc(Nc3ccc(C(=O)N[C@H]4CC[C@H](N5CCN(CC6CC6)CC5)CC4)cc3OC)nc2N1C(C)C [volasertib]
# Procedure, shortened: as §1
# [3] = compound: CCn1c(C(=O)N(C2CC2)C2CC2)cc2c3c(ncn3C)c(Nc3cc(C)n(C)n3)nc21
# Procedure, shortened: as §1
# [4] = compound: CCn1cc(-c2ccnc3[nH]c(-c4cccc(CN(C)C)c4)cc23)c(-c2ccc(NC(=O)N(C)C)cc2)n1
# Procedure, shortened: as §1
# [5] = compound: CN1CCC(CNc2ccc3ncc(-c4cccc(OC(F)(F)F)c4)n3n2)CC1
# Procedure, shortened: as §1
# saracatinib = compound: CN1CCN(CCOc2cc(OC3CCOCC3)c3c(Nc4c(Cl)ccc5c4OCO5)ncnc3c2)CC1 [saracatinib]
# Procedure, shortened: as §1
# sotrastaurin = compound: CN1CCN(c2nc(C3=C(c4c[nH]c5ccccc45)C(=O)NC3=O)c3ccccc3n2)CC1 [sotrastaurin]
# Procedure, shortened: as §1
# alvocidib = compound: CN1CC[C@H](c2c(O)cc(O)c3c(=O)cc(-c4ccccc4Cl)oc23)[C@H](O)C1 [alvocidib]
# Procedure, shortened: as §1
# Tubastatin A = compound: CN1CCc2c(c3ccccc3n2Cc2ccc(C(=O)NO)cc2)C1 [Tubastatin A]
# Procedure, shortened: as §1
# [6] = compound: CNC(=O)C1=CC=CC=C1NC2=NC(=NC=C2Cl)NC3=C(C=C(C=C3)N4CCOCC4)OC
# Procedure, shortened: as §1
# defactinib = compound: CNC(=O)c1ccc(Nc2ncc(C(F)(F)F)c(NCc3nccnc3N(C)S(C)(=O)=O)n2)cc1 [defactinib]
# Procedure, shortened: as §1
# [7] = compound: CNc1nc(-c2ccc3c(N)n[nH]c3c2)cc(N2C[C@@H](C(=O)NC3CCCCC3)CC[C@H]2C)n1
# Procedure, shortened: as §1
# encorafenib = compound: COC(=O)N[C@@H](C)CNc1nccc(-c2cn(C(C)C)nc2-c2cc(Cl)cc(NS(C)(=O)=O)c2F)n1 [encorafenib]
# Procedure, shortened: as §1
# [8] = compound: COC(=O)[C@H](CCSC)NC(=O)C1=C(C=C(C=C1)NC[C@H](CS)N)C2=CC=CC=C2
# Procedure, shortened: as §1
# alisertib = compound: COc1cc(Nc2ncc3c(n2)-c2ccc(Cl)cc2C(c2c(F)cccc2OC)=NC3)ccc1C(=O)O [alisertib]
# Procedure, shortened: as §1
# [9] = compound: COc1cc2nc(-c3cc(F)ccc3O)nc(N[C@@H]3CNC[C@H]3C(C)(C)O)c2cc1OC
# Procedure, shortened: as §1
# gefitinib = compound: COc1cc2ncnc(Nc3ccc(F)c(Cl)c3)c2cc1OCCCN1CCOCC1 [gefitinib]
# Procedure, shortened: as §1
Target,log2 fold change (vemurafenib),log2 fold change [1],log2 fold change (barasertib),log2 fold change [2],log2 fold change (volasertib),log2 fold change [3],log2 fold change [4],log2 fold change [5],log2 fold change (saracatinib),log2 fold change (sotrastaurin),log2 fold change (alvocidib),log2 fold change (Tubastatin A),log2 fold change [6],log2 fold change (defactinib),log2 fold change [7],log2 fold change (encorafenib),log2 fold change [8],log2 fold change (alisertib),log2 fold change [9],log2 fold change (gefitinib)
VPS52 (UniProt Q8N1B4),inactive: 0.004,inactive: 0.013,inactive: 0.021,inactive: -0.031,inactive: -0.043,inactive: 0.024,inactive: -0.034,inactive: -0.026,inactive: -0.016,inactive: 0.014,inactive: -0.016,inactive: -0.019,inactive: -0.01,inactive: 0.02,inactive: -0.034,inactive: 0.046,inactive: 0.006,inactive: 0.028,inactive: -0.009,inactive: -0.013
VPS53 isoform 4 (UniProt Q5VIR6),inactive: -0.003,inactive: 0.019,inactive: 0.059,inactive: -0.004,inactive: -0.028,inactive: 0.004,inactive: 0.009,inactive: -0.046,inactive: 0.024,inactive: 0.025,inactive: -0.017,inactive: -0.034,inactive: 0.012,inactive: 0.018,inactive: -0.014,inactive: 0.014,inactive: -0.008,inactive: -0.041,inactive: -0.006,inactive: 0.012
WNK1 isoform 7 (UniProt Q9H4A3),inactive: 0.001,inactive: 0.036,inactive: 0.021,inactive: 0.01,inactive: -0.019,inactive: 0.009,inactive: 0.04,inactive: -0.013,inactive: 0.031,inactive: -0.004,inactive: 0.012,inactive: -0.005,inactive: 0.017,inactive: -0.012,inactive: -0.025,inactive: 0.015,inactive: 0.027,inactive: 0.022,inactive: 0.022,inactive: -0.002
VPS54 (UniProt Q9P1Q0),inactive: 0.046,inactive: -0.015,inactive: -0.042,inactive: -0.037,inactive: 0.068,inactive: -0.259,inactive: -0.278,inactive: 0.141,inactive: 0.05,inactive: -0.087,inactive: -0.07,inactive: 0,inactive: 0.059,inactive: -0.07,inactive: 0.013,inactive: -0.001,inactive: 0.105,inactive: -0.024,inactive: 0.071,inactive: 0.089
VPS25 (UniProt Q9BRG1),inactive: -0.006,inactive: 0.015,inactive: 0.094,inactive: 0.005,inactive: 0.002,inactive: 0.005,inactive: 0.164,inactive: -0.048,inactive: 0.012,inactive: -0.027,inactive: 0.068,inactive: 0.015,inactive: 0.018,inactive: 0.047,inactive: 0.008,inactive: -0.005,inactive: -0.007,inactive: 0.044,inactive: -0.015,inactive: -0.026
VPS16 (UniProt Q9H269),inactive: 0.038,inactive: 0.009,inactive: 0.007,inactive: 0.063,inactive: -0.04,inactive: 0.028,inactive: -0.049,inactive: -0.015,inactive: -0.017,inactive: -0.002,inactive: 0.032,inactive: -0.082,inactive: 0.002,inactive: -0.006,inactive: 0,inactive: 0.049,inactive: -0.069,inactive: 0.031,inactive: -0.004,inactive: 0.013
VPS33B (UniProt Q9H267),inactive: 0.01,inactive: 0.012,inactive: 0.003,inactive: -0.026,inactive: -0.034,inactive: 0.011,inactive: -0.048,inactive: 0.003,inactive: 0.017,inactive: 0.006,inactive: 0.003,inactive: -0.073,inactive: -0.026,inactive: 0.002,inactive: -0.036,inactive: 0.028,inactive: 0.014,inactive: -0.012,inactive: 0.003,inactive: 0.027
WDTC1 (UniProt Q8N5D0),inactive: -0.017,inactive: 0.017,inactive: 0.067,inactive: -0.04,inactive: -0.035,inactive: -0.032,inactive: 0.008,inactive: -0.061,inactive: 0.022,inactive: -0.023,inactive: -0.03,inactive: 0.018,inactive: 0.006,inactive: 0.029,inactive: -0.082,inactive: 0.05,inactive: 0.039,inactive: -0.007,inactive: -0.009,inactive: -0.077
WDSUB1 (UniProt Q8N9V3),inactive: 0,inactive: 0.015,inactive: -0.02,inactive: 0.027,inactive: 0.006,inactive: 0.018,inactive: -0.082,inactive: 0.068,inactive: -0.007,inactive: 0.036,inactive: -0.015,inactive: 0.036,inactive: 0.013,inactive: -0.042,inactive: 0.015,inactive: 0.015,inactive: -0.044,inactive: 0.029,inactive: 0.01,inactive: 0.01
WDR18 (UniProt Q9BV38),inactive: 0.017,inactive: 0.052,inactive: 0.063,inactive: 0.058,inactive: -0.018,inactive: 0.023,inactive: -0.022,inactive: 0.096,inactive: -0.009,inactive: -0.039,inactive: -0.014,inactive: -0.038,inactive: -0.001,inactive: 0.004,inactive: 0.046,inactive: 0.09,inactive: -0.192,inactive: -0.005,inactive: -0.033,inactive: 0.012
WRB (UniProt O00258),inactive: 0.086,inactive: 0.077,inactive: 0.098,inactive: -0.011,inactive: 0.015,inactive: -0.148,inactive: -0.176,inactive: 0.068,inactive: -0.147,inactive: 0.013,inactive: -0.022,inactive: 0.114,inactive: 0.029,inactive: -0.003,inactive: 0.044,inactive: -0.067,inactive: 0.027,inactive: -0.028,inactive: 0.022,inactive: 0.061
VRK1 (UniProt Q99986),inactive: 0.024,inactive: 0.024,inactive: -0.002,inactive: -0.051,inactive: -0.03,inactive: 0,inactive: -0.041,inactive: 0.031,inactive: 0.002,inactive: 0.178,active: 0.385,inactive: -0.096,inactive: 0.008,inactive: -0.067,inactive: 0.017,inactive: -0.027,inactive: 0.047,inactive: -0.004,inactive: -0.007,inactive: -0.026
VWA8 (UniProt A3KMH1),inactive: 0.061,inactive: 0.024,inactive: 0.152,inactive: -0.173,inactive: 0.031,inactive: 0.015,inactive: 0.123,inactive: -0.075,inactive: 0.055,inactive: 0.079,inactive: -0.057,inactive: 0.079,inactive: -0.042,inactive: 0.195,inactive: -0.018,inactive: -0.062,inactive: 0.205,inactive: 0.041,inactive: -0.084,inactive: -0.099
WBP11 (UniProt Q9Y2W2),inactive: -0.033,inactive: -0.016,inactive: -0.03,inactive: 0.031,inactive: 0.037,inactive: -0.017,inactive: -0.043,inactive: 0.01,inactive: 0.004,inactive: -0.002,inactive: -0.005,inactive: 0.019,inactive: 0.007,inactive: 0.01,inactive: 0.02,inactive: 0.027,inactive: 0.016,inactive: 0.027,inactive: -0.032,inactive: -0.01
WDR70 (UniProt Q9NW82),inactive: -0.004,inactive: 0.042,inactive: -0.018,inactive: 0.016,inactive: 0.012,inactive: 0.053,inactive: -0.022,inactive: -0.006,inactive: -0.024,inactive: 0.001,inactive: 0.013,inactive: -0.033,inactive: -0.051,inactive: -0.023,inactive: -0.016,inactive: 0.004,inactive: -0.084,inactive: 0.003,inactive: -0.013,inactive: 0.038
WDR46 (UniProt O15213),inactive: 0.062,inactive: 0.006,inactive: -0.078,inactive: 0.037,inactive: 0,inactive: -0.029,inactive: -0.046,inactive: 0,inactive: 0.048,inactive: 0.019,inactive: -0.066,inactive: -0.047,inactive: -0.041,inactive: 0.006,inactive: 0.052,inactive: -0.015,inactive: -0.026,inactive: 0.101,inactive: 0.053,inactive: 0.136

# Given with tabs: entries from further up.
Target	log2 fold change (vemurafenib)	log2 fold change [1]	log2 fold change (barasertib)	log2 fold change [2]	log2 fold change (volasertib)	log2 fold change [3]	log2 fold change [4]	log2 fold change [5]	log2 fold change (saracatinib)	log2 fold change (sotrastaurin)	log2 fold change (alvocidib)	log2 fold change (Tubastatin A)	log2 fold change [6]	log2 fold change (defactinib)	log2 fold change [7]	log2 fold change (encorafenib)	log2 fold change [8]	log2 fold change (alisertib)	log2 fold change [9]	log2 fold change (gefitinib)
VWA8 (UniProt A3KMH1)	inactive: 0.061	inactive: 0.024	inactive: 0.152	inactive: -0.173	inactive: 0.031	inactive: 0.015	inactive: 0.123	inactive: -0.075	inactive: 0.055	inactive: 0.079	inactive: -0.057	inactive: 0.079	inactive: -0.042	inactive: 0.195	inactive: -0.018	inactive: -0.062	inactive: 0.205	inactive: 0.041	inactive: -0.084	inactive: -0.099
WBP11 (UniProt Q9Y2W2)	inactive: -0.033	inactive: -0.016	inactive: -0.03	inactive: 0.031	inactive: 0.037	inactive: -0.017	inactive: -0.043	inactive: 0.01	inactive: 0.004	inactive: -0.002	inactive: -0.005	inactive: 0.019	inactive: 0.007	inactive: 0.01	inactive: 0.02	inactive: 0.027	inactive: 0.016	inactive: 0.027	inactive: -0.032	inactive: -0.01
